Measurements reported in PubChem BioAssay AID1508588 (Peter MacCallum Cancer Centre, 2020).
Here is an unselected part of about 18,000 reagents tested. Of all reagents, 790 (4.4%) are marked active. 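Calls rest on a combination of fold-change classes in drug and vehicle arms, not all shown here.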

- Aim: 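Which gene losses make BRAF-mutant melanoma cells more responsive to vemurafenib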 (primary screen)
- Cells: human WM266.4 melanoma cells (BRAF V600 mutant)
- Reagents: siRNA pool against human genes, 40 nM
- Time to read-out: 96 h from transfection to read-out
- Conditions: vemurafenib 300 nM (about IC25), added 48 h after transfection, for 48 h; comparison arm got DMSO vehicle only
- Measurement: 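Ratios to non-targeting siRNA for cell gain, counted as DAPI nuclei after minus before drug and averaged over two replicates, and for absorbance-read medium lactate per cell; both binned into fold-change classes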
- Scale: cell gain with vemurafenib: higher = more cell gain than with non-targeting siRNA; lactate per cell with vemurafenib: higher = more lactate made per cell
- Hit rule: 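a knock-down counts as enhancing when its fold-change classes with vehicle and with vemurafenib, taken together, show a stronger drug effect on cell gain or lactate per cell; exact class pairs not stated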
- Calls: active = enhances vemurafenib effect; inactive = no enhancement seen

Target gene	cell gain with vemurafenib	lactate per cell with vemurafenib	Outcome
CHST7	0.6	0.85	inactive
BSDC1	0.62	0.55	inactive
LURAP1	1.18	0.4	inactive
ADAMTSL1	0.59	0.9	inactive
PDF	0.79	0.94	inactive
ATP10A	0.66	0.96	inactive
IL9R	0.25	0.48	inactive
CLPTM1L	0.37	1.15	inactive
ATP6V1E2	0.71	1.56	inactive
GRIK2	0.6	1.06	inactive
JMJD4	0.19	1.23	inactive
ASNSD1	0.88	0.4	inactive
EIF4E	0.47	0.94	inactive
RBM17	0.43	0.53	inactive
MLN	0.39	0.85	inactive
KLF9	0.35	0.72	inactive
ACADSB	0.28	1.54	inactive
ZDHHC9	0.69	0.24	inactive
SLC33A2	0.86	0.51	inactive
RNMT	0.79	0.17	inactive
PCDHB12	0.97	0.62	inactive
DDN	0.73	0.94	inactive
PIGZ	0.32	0.66	active
PPP1R3B	0.07	0.6	active
SPEN	0.51	0.82	inactive
PCDHA12	0.36	1.92	inactive
ZNF658B	0.96	1.16	inactive
SSTR2	0.72	0.68	inactive
GSTT2B	1.32	0.64	inactive
SETD7	0.57	0.93	inactive
GGTLC2	0.04	3	inactive
SYNPO2L	0.18	0.46	active
STARD8	0.84	1.09	inactive
DOLK	0.88	0.95	inactive

Part of the list above in another layout:
{"Target gene": "CHST7", "cell gain with vemurafenib": 0.6, "lactate per cell with vemurafenib": 0.85, "Outcome": "inactive"}
{"Target gene": "BSDC1", "cell gain with vemurafenib": 0.62, "lactate per cell with vemurafenib": 0.55, "Outcome": "inactive"}
{"Target gene": "LURAP1", "cell gain with vemurafenib": 1.18, "lactate per cell with vemurafenib": 0.4, "Outcome": "inactive"}
{"Target gene": "ADAMTSL1", "cell gain with vemurafenib": 0.59, "lactate per cell with vemurafenib": 0.9, "Outcome": "inactive"}
{"Target gene": "PDF", "cell gain with vemurafenib": 0.79, "lactate per cell with vemurafenib": 0.94, "Outcome": "inactive"}
{"Target gene": "ATP10A", "cell gain with vemurafenib": 0.66, "lactate per cell with vemurafenib": 0.96, "Outcome": "inactive"}
